Results on 4 molecules are retold here after PMC10454406.

By UniProt entry, the sequences of proteins in these tests, tags left out.
UniProt P0DTC4: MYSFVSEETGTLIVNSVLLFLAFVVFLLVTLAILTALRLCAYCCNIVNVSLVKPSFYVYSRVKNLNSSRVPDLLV

Results are given in words; binding and its absence hold for the method and conditions named. In cells and extracts the contact can be indirect. Here binding means that the protein was enriched with, or labelled near, the bait; the list need not be complete. For some of these results: A no says only that the protein was not detected with the bait.

Assay [1] has as its target GFP-SARS-CoV-2 E protein (wild-type E protein) (SARS-CoV-2), P0DTC4. Briefly: affinity purification with mass spectrometry. The note with it: remark: other sources report otherwise.
The target in assay [2] is GFP-SARS-CoV-2 E protein (wild-type E protein) (SARS-CoV-2) (UniProt P0DTC4). Briefly: affinity purification with mass spectrometry.

B1: PALS1 (protein associated with lin-seven-1), Q8N3R9 1-675 (protein)
chain: MTTSHMNGHVTEESDSEVKNVDLASPEEHQKHREMAVDCPGDLGTRMMPIRRSAQLERIRQQQEDMRRRREEEGKKQELDLNSSMRLKKLAQIPPKTGIDNPMFDTEEGIVLESPHYAVKILEIEDLFSSLKHIQHTLVDSQSQEDISLLLQLVQNKDFQNAFKIHNAITVHMNKASPPFPLISNAQDLAQEVQTVLKPVHHKEGQELTALLNTPHIQALLLAHDKVAEQEMQLEPITDERVYESIGQYGGETVKIVRIEKARDIPLGATVRNEMDSVIISRIVKGGAAEKSGLLHEGDEVLEINGIEIRGKDVNEVFDLLSDMHGTLTFVLIPSQQIKPPPAKETVIHVKAHFDYDPSDDPYVPCRELGLSFQKGDILHVISQEDPNWWQAYREGDEDNQPLAGLVPGKSFQQQREAMKQTIEEDKEPEKSGKLWCAKKNKKKRKKVLYNANKNDDYDNEEILTYEEMSLYHQPANRKRPIILIGPQNCGQNELRQRLMNKEKDRFASAVPHTTRSRRDQEVAGRDYHFVSRQAFEADIAAGKFIEHGEFEKNLYGTSIDSVRQVINSGKICLLSLRTQSLKTLRNSDLKPYIIFIAPPSQERLRALLAKEGKNPKPEELREIIEKTREMEQNNGHYFDTAIVNSDLDKAYQELLRLINKLDTEPQWVPSTWLR
In the case of B1, the binding result in assay [1] is listed as “no binding”.

B2: membrane palmitoylated protein 1 (protein, UniProt Q00013 1-466)
chain: MTLKASEGESGGSMHTALSDLYLEHLLQKRSRPEAVSHPLNTVTEDMYTNGSPAPGSPAQVKGQEVRKVRLIQFEKVTEEPMGITLKLNEKQSCTVARILHGGMIHRQGSLHVGDEILEINGTNVTNHSVDQLQKAMKETKGMISLKVIPNQQSRLPALQMFMRAQFDYDPKKDNLIPCKEAGLKFATGDIIQIINKDDSNWWQGRVEGSSKESAGLIPSPELQEWRVASMAQSAPSEAPSCSPFGKKKKYKDKYLAKHSSIFDQLDVVSYEEVVRLPAFKRKTLVLIGASGVGRSHIKNALLSQNPEKFVYPVPYTTRPPRKSEEDGKEYHFISTEEMTRNISANEFLEFGSYQGNMFGTKFETVHQIHKQNKIAILDIEPQTLKIVRTAELSPFIVFIAPTDQGTQTEALQQLQKDSEAIRSQYAHYFDLSLVNNGVDETLKKLQEAFDQACSSPQWVPVSWVY
As for B2, the binding entry in assay [2] is recorded as “binds”.

B3: RAE1 (protein, UniProt P78406 1-368)
chain: MSLFGTTSGFGTSGTSMFGSATTDNHNPMKDIEVTSSPDDSIGCLSFSPPTLPGNFLIAGSWANDVRCWEVQDSGQTIPKAQQMHTGPVLDVCWSDDGSKVFTASCDKTAKMWDLSSNQAIQIAQHDAPVKTIHWIKAPNYSCVMTGSWDKTLKFWDTRSSNPMMVLQLPERCYCADVIYPMAVVATAERGLIVYQLENQPSEFRRIESPLKHQHRCVAIFKDKQNKPTGFALGSIEGRVAIHYINPPNPAKDNFTFKCHRSNGTNTSAPQDIYAVNGIAFHPVHGTLATVGSDGRFSFWDKDARTKLKTSEQLDQPISACCFNHNGNIFAYASSYDWSKGHEFYNPQKKNYIFLRNAAEELKPRNKK
For B3, in assay [2], the binding result was “binds”.

B4: protein lin-7 homolog A (protein, UniProt O14910 1-233)
chain: MLKPSVTSAPTADMATLTVVQPLTLDRDVARAIELLEKLQESGEVPVHKLQSLKKVLQSEFCTAIREVYQYMHETITVNGCPEFRARATAKATVAAFAASEGHSHPRVVELPKTDEGLGFNVMGGKEQNSPIYISRIIPGGVAERHGGLKRGDQLLSVNGVSVEGEHHEKAVELLKAAKDSVKLVVRYTPKVLEEMEARFEKLRTARRRQQQQLLIQQQQQQQQQQTQQNHMS
Take B4: the binding result in assay [2] is reported as “binds”.
